# Measured values from PubChem BioAssay AID2810 (NMMLSC, 2010).
# The other results are listed elsewhere or left out. Shown are side measurements of this screen, not its main read-out; they come without a call.
# Test: modulators of CD8 T cell-vesicle binding, confirmation, cherry-picked primary hits, two concentrations (AID 2810);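 further: lower values mean blocking of vesicle binding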;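 on percent response (vesicle binding): ratio of mean FL2 vesicle stain of CD8+ cells to that row's control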
# Conditions: 2C CD8+ T cell-vesicle binding, flow cytometry; for double positive events: CD8+/vesicle+ events
# [1] = at 15.4 µM, stronger effect = lower value
Compound,double positive events (at 7.7 µM) [%],double positive events [1] [%],percent response (vesicle binding) (at 7.7 µM) [%]
CCOC(=O)/C=C1\SCC(=O)N1CC(=O)NC(C)c1ccc(F)cc1 (stereo not drawn),25,7.1,279
O=C(Nc1cccn(Cc2ccccc2Cl)c1=O)NC1CCCCC1,7.6,18.1,309
CC(C)CNC(=O)COC(=O)c1n[nH]c2ccccc12,12,12.5,141
O=C(NCc1ccccc1C(F)(F)F)C1CCC(=O)N(CCCc2ccccc2)C1 (stereo not drawn),16.8,5.6,406
COc1cccc(C(=O)Nc2ccc(NC(=O)C3CC=CCC3C(=O)O)cc2)c1 (stereo not drawn),39.7,10.6,284
O=C(Cc1ccc(Cl)cc1)Nc1ccccc1N1CCOCC1,12.5,24,162
Cc1ccc(Cl)cc1OCC(=O)NCCOC(=O)Nc1sc(=S)n(C)c1C,36.7,12.3,
O=C1c2ccccc2OCOc2ccccc21,31.9,17.5,310
